These results are taken from US10941351B2, “Layer-separation method of spent caustic solution” (SK Innovation Co., Ltd., priority 2016, dated 2021).

The structures appear in SMILES notation.

The series can be described thus: Layer-separation of pH-adjusted spent caustic solution with additive: phenols remaining and phenol extraction rate.
Setting [1] is: pH about 2, volume ratio spent caustic solution:additive 99:1, PSC 1,420 ppm.

Consider `CCCCC(CC)CO` (centres unmarked) [2-Ethyl-1-hexanol, 2-ethyl-1-hexanol], for which the “PTSC (amount of phenols in final spent caustic solution)” value under setting [1] came out at 700 ppm. Also, the Phenol extraction rate under setting [1] came out at 50.7% and the Phenol extraction rate result (pH about 2, volume ratio spent caustic solution:additive 99:1, PSC 1,420 ppm, listed as 2-ethyl-1-hexanol) is recorded as “about 51%”.

On to `CCCCOC(C)=O` [Butyl acetate, butyl acetate], for which, under setting [1], the “PTSC (amount of phenols in final spent caustic solution)” value amounted to 540 ppm and the Phenol extraction rate worked out at 62.0%.

`CCOC(C)=O` [Ethyl acetate, ethyl acetate, reference compound]: under setting [1], the “PTSC (amount of phenols in final spent caustic solution)” value was 1,040 ppm. Also, the Phenol extraction rate is given as 26.7% under setting [1] and “about 27%” (pH about 2, volume ratio spent caustic solution:additive 99:1, PSC 1,420 ppm, listed as Comparative Example 3).

`CCCCCCCCO` [Example 11, n-octanol]: the Phenol extraction rate (regenerated additive re-injected into another spent caustic solution, volume ratio 99:1) is given as 45%.

As for `Cc1ccccc1` [Toluene, toluene, reference compound], the “PTSC (amount of phenols in final spent caustic solution)” value under setting [1] is listed as 1,030 ppm. Moreover, the Phenol extraction rate is on record as 27.5% under setting [1] and “about 27%” (pH about 2, volume ratio spent caustic solution:additive 99:1, PSC 1,420 ppm, listed as Comparative Example 6).

As for `CCCCCCC` [n-Heptane, n-heptane, reference compound], under setting [1], the “PTSC (amount of phenols in final spent caustic solution)” value is 1,360 ppm and the Phenol extraction rate was found to be 4.2%.

With `CCCCCC` [n-Hexane, n-hexane, reference compound], under setting [1], the “PTSC (amount of phenols in final spent caustic solution)” value was 1,330 ppm and the Phenol extraction rate was determined as 6.3%.

Take `CCCCCCO` [n-Hexanol, n-hexanol]: under setting [1], the “PTSC (amount of phenols in final spent caustic solution)” value is 630 ppm and the Phenol extraction rate came to 55.6%.

For the molecule `CCCCCCCCO` [n-Octanol, n-octanol], the “PTSC (amount of phenols in final spent caustic solution)” value under setting [1] is 710 ppm. Further, the Phenol extraction rate stood at 50.0% under setting [1]; 82.4% (volume ratio 90:10 (Example 10)); 77.5% (volume ratio 95:5 (Example 9)); 69.7% (volume ratio 97:3 (Example 8)); 31.7% (volume ratio 99.5:0.5 (Example 7)); 16.2% (volume ratio 99.8:0.2 (Example 6)). Besides, the Phenol extraction rate (volume ratio 99.9:0.1 (Example 5)) is given as 12.0%. Further, the PTSC (volume ratio 90:10 (Example 10), PSC 1,420 ppm) is on record as 250 ppm; the PTSC (volume ratio 95:5 (Example 9), PSC 1,420 ppm) is listed as 320 ppm; the PTSC (volume ratio 97:3 (Example 8), PSC 1,420 ppm) stood at 430 ppm; the PTSC (volume ratio 99.5:0.5 (Example 7), PSC 1,420 ppm) is reported as 970 ppm; the PTSC (volume ratio 99.8:0.2 (Example 6), PSC 1,420 ppm) was 1,190 ppm; the PTSC (volume ratio 99.9:0.1 (Example 5), PSC 1,420 ppm) is listed as 1,250 ppm.
